Laboratory results taken from PubChem BioAssay AID248 (DTP/NCI, 2004).
The list is a part of this screen's results and no random one: it is rich in T/C values a quarter to a half above the control, in often repeated tests (any T/C) and in doses without a T/C. Further doses and runs are listed elsewhere. T/C is the treated group as % of the vehicle group. Some doses have a count of surviving animals in place of a T/C: the source holds a T/C of zero for them, seemingly a mark for toxic or unscored doses. Some doses without a T/C left all or most animals alive at the check, yet need not have been tolerated: the source hardly ever lists a survival T/C far under the control, and the zero likely stands for such cases as well. Survivors were counted at the toxicity check, usually on the fifth day, unless a day is given; later deaths do not show. Schedules are NCI's codes, read here as Q, the interval in days (D) or hours (H), X, the number of doses. Some schedule codes hold Z or #, which are not explained here. Some structures stand for samples that the source files as different forms (salt, stereo form or complex); doses refer to the form tested. Some entries were tested several times; the values are given in rising order. For survival time, the PubChem record calls one and a half times the control and up active, and a quarter to a half above the control has no call in these data; cut-offs in other NCI protocols can differ. Some T/C values carry the count of animals alive at the toxicity check (mostly the fifth day); without a count, all were alive then.

System: L1210 leukemia ip in BDF1 mice, survival T/C
Assay: NCI In Vivo Anticancer Drug Screen. Data for tumor model L1210 Leukemia (intraperitoneal) in B6D2F1 (BDF1) mice
Details: T/C endpoint: mean survival time, higher T/C = longer survival
[1] = dose: 400.0 mg/kg/injection, schedule: Q01DX001 (oral), vehicle: water
[2] = dose: 400.0 mg/kg/injection, schedule: Q04DX003 (ip), vehicle: saline with Tween-80

Cc1c2ccncc2c(C)c2c1[nH]c1ccccc12
T/C (dose: 200.0 mg/kg/injection, schedule: Q04DX003 (oral), vehicle: saline): 137 % of control | survivor count (dose: 200.0 mg/kg/injection, schedule: Q04DX003 (oral), vehicle: water): 6 of 6 | survivor count (dose: 200.0 mg/kg/injection, schedule: Q04DX009 (ip), vehicle: citric acid): 6 of 10 | T/C (dose: 225.0 mg/kg/injection, schedule: Q01DX001 (ip), vehicle: saline): 141 % of control | survivor count (dose: 225.0 mg/kg/injection, schedule: Q01DX Z (oral), vehicle: saline): 5 of 6 | survivor count (dose: 256.0 mg/kg/injection, schedule: Q01DX001 (ip), vehicle: clinical formulation): 0 of 10 | T/C (dose: 256.0 mg/kg/injection, schedule: Q01DX001 (sc), vehicle: clinical formulation): 146 % of control | survivor count (dose: 256.0 mg/kg/injection, schedule: Q04DX003 (ip), vehicle: acid diluted with saline): 2 of 10 | survivor count (dose: 256.0 mg/kg/injection, schedule: Q04DX003 (ip), vehicle: clinical formulation): 0 of 10 | survivor count (dose: 256.0 mg/kg/injection, schedule: Q04DX003 (oral), vehicle: clinical formulation): 9 of 10 | survivor count (dose: 256.0 mg/kg/injection, schedule: Q08DX002 (ip), vehicle: clinical formulation): 0 of 10 | T/C (dose: 256.0 mg/kg/injection, schedule: Q## X009 (oral), vehicle: carboxymethylcellulose (CMC)): 132 % of control | survivor count (dose: 300.0 mg/kg/injection, schedule: Q01DX001 (ip), vehicle: other): 0 of 8 | T/C (dose: 300.0 mg/kg/injection, schedule: Q01DX001 (ip), vehicle: saline with Tween-80): 147 % of control | T/C (dose: 300.0 mg/kg/injection, schedule: Q01DX001 (oral), vehicle: Klucel (hydroxypropylcellulose) (HPC)): 133 % of control | T/C (dose: 300.0 mg/kg/injection, schedule: Q01DX001 (oral), vehicle: other, evaluated on day 40): 150 % of control | T/C (dose: 300.0 mg/kg/injection, schedule: Q01DX001 (oral), vehicle: other, evaluated on day 60): 135, 160, 177 % of control | survivor count (dose: 300.0 mg/kg/injection, schedule: Q01DX001 (oral), vehicle: other): 3 of 10 | T/C (dose: 300.0 mg/kg/injection, schedule: Q01DX001 (oral), vehicle: saline): 126 and 138 % of control | T/C (dose: 300.0 mg/kg/injection, schedule: Q04DX003 (ip), vehicle: Klucel (hydroxypropylcellulose) (HPC), evaluated on day 5): 95 % of control | T/C (dose: 300.0 mg/kg/injection, schedule: Q04DX003 (ip), vehicle: Klucel (hydroxypropylcellulose) (HPC), evaluated on day 30): 123 % of control | T/C (dose: 300.0 mg/kg/injection, schedule: Q04DX003 (ip), vehicle: Klucel (hydroxypropylcellulose) (HPC), evaluated on day 60): 95, 97, 102 % of control | survivor count (dose: 300.0 mg/kg/injection, schedule: Q04DX003 (ip), vehicle: saline): 10 of 10 | survivor count (dose: 300.0 mg/kg/injection, schedule: Q08DX002 (ip), vehicle: other): 0 of 8 | survivor count (dose: 300.0 mg/kg/injection, schedule: Q08DX002 (ip), vehicle: steroid suspending solution): 8 of 8 | T/C (dose: 320.0 mg/kg/injection, schedule: Q01DX001 (ip), vehicle: acid diluted with saline): 149 % of control | survivor count (dose: 400.0 mg/kg/injection, schedule: Q01DX001 (oral), vehicle: saline with Tween-80): 5 of 6 and 6 of 6 | T/C [1]: 133 % of control | survivor count [1]: 6 of 6 | survivor count (dose: 400.0 mg/kg/injection, schedule: Q01DX009 (ip), vehicle: other): 4 of 6 | T/C [2]: 86 [5 of 6 alive], 92, 122 % of control | survivor count [2]: 6 of 6 | survivor count (dose: 400.0 mg/kg/injection, schedule: Q04DX003 (ip), vehicle: saline): 6 of 6 | survivor count (dose: 400.0 mg/kg/injection, schedule: Q04DX003 (oral), vehicle: water): 6 of 6 | survivor count (dose: 480.0 mg/kg/injection, schedule: Q01DX001 (ip), vehicle: acetone): 3 of 4 | survivor count (dose: 480.0 mg/kg/injection, schedule: Q## X008 (oral), vehicle: other): 3 of 10 | survivor count (dose: 480.0 mg/kg/injection, schedule: Q## X016 (oral), vehicle: other): 3 of 10 | survivor count (dose: 600.0 mg/kg/injection, schedule: Q01DX001 (ip), vehicle: other): 0 of 8 | survivor count (dose: 600.0 mg/kg/injection, schedule: Q01DX001 (ip), vehicle: saline with Tween-80): 1 of 10 | T/C (dose: 600.0 mg/kg/injection, schedule: Q01DX001 (ip), vehicle: saline): 147 % of control | survivor count (dose: 600.0 mg/kg/injection, schedule: Q01DX001 (ip), vehicle: steroid suspending solution): 7 of 8 | survivor count (dose: 600.0 mg/kg/injection, schedule: Q01DX001 (oral), vehicle: Klucel (hydroxypropylcellulose) (HPC)): 5 of 10 | T/C (dose: 600.0 mg/kg/injection, schedule: Q01DX001 (oral), vehicle: other, evaluated on day 40): 131 % of control [9 of 10 alive]
